The text below walks through data of PubChem BioAssay AID1508600 (Functional Genomics Laboratory (NCATS/FGL), 2020).

In all, about 53,000 sequences went through this assay and about 3,700 (7%) were called active.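 Rule for the calls: active = gene knockdowns whose robust z-score for IL-1 alpha signal is at least 2 or at most -2, so actives lie on both sides; inactive = the rest.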 The list shows a part of the results.

A short description of this assay: Components of the Cytosolic LPS Sensing Pathway: Gene Identification via Genome-wide siRNA Screen.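 Note: robust z of the log signal after scaling to non-targeting control siRNA wells of the plate.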 Particulars: RAW264.7 macrophages, IL-1a HTRF, actives lie on both sides, screened at 100 nM (by protocol), cells primed 5 h with Pam3CSK4 first. In short, it runs like this: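 Read-out: IL-1a HTRF on supernatant, divided by plate negative-control median ×100, log-transformed and converted to robust z-score. Cells were RAW264.7 given 100 nM siRNA, Pam3CSK4-primed 5 hours, then LipidA-transfected 24 hour.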
On the technique in general: TR-FRET usually uses a lanthanide donor and a delayed reading to cut background.
For the sequence CUUAGUGCUCUGGGAGCAGTT against Ms4a5, the z-score is inactive: 0.487.

As for GGUAACCUGAUGGCUGAAATT against Zfp692, the z-score was active: 2.79.

With GGAAGGUGUUCGUAGAGAATT against Mad2l1, the z-score is inactive: 0.0941.

On to CGUGUCUUUAUUCAUCCCATT against C1s1, for which the z-score is inactive: -0.822.

Take GGAUCUGAGCCUUAACAAGTT against Lpcat3: the z-score was active: 2.92.

As for GGCCUGUCUCUCUUAUUAATT against Btg2, the z-score is inactive: -0.28.

GGAUUGUAAUCAAAUGUGCTT against Plekhh2: the z-score was inactive: 1.51.

With CGACAUGAAGUGAUUCAUUTT against Zfp459, the z-score was inactive: 0.576.

With GCAAAGUAUAGCUAUGUGCTT against Gm4759, the z-score is inactive: -0.936.

Turning to GGUCUACAAUGUGAAAAUCTT against Clnk, the z-score is inactive: -0.989.

As for UGCUGGAUUCCAUUGACCUTT against Olfr675, the z-score was inactive: -1.46.

Turning to GGAAGGAUAUAAGACACAATT against Gbp4, the z-score is inactive: 0.943.

Consider CCUAGUAUAUCUGUGUUGUTT against Wnk1, for which the z-score was inactive: -0.406.

For the sequence CGGGUCUGCUCUUUGGAAATT against Yif1b, the z-score is inactive: -0.471.

CCUACUACAUCCGCUACUGTT against Apba2: the z-score was inactive: -0.366.

For GCUGUGUCGGUGUUGGAUGTT against Ap5z1, the z-score is inactive: 0.0827.

For the sequence CCGCCUUUCUUACAACCAATT against Rpl41, the z-score was inactive: -0.146.

On to GCACAGGGAAUGUUGUAGATT against Polr3d, for which the z-score is inactive: -0.696.

For the sequence GCAGAUAAUCUAGCAAAGATT against Agps, the z-score is inactive: 0.903.

Take GGGAAUGCUUAUGUAGGCATT against Aldh3b1: the z-score is inactive: -1.03.

UAGUCAUUGGGAUUCCUUCTT against Olfr112: the z-score was active: 2.98.

In the case of GCAAUUUCCUCUCGAGACGTT against Olfr750, the z-score was inactive: -0.328.

Turning to GGAGAGAGAGAAGAAGGAUTT against Zmat2, the z-score is inactive: -1.47.

On to GCCACGGGUAUAUCUAUAGTT against Tigd4, for which the z-score is inactive: -0.296.

For the sequence GGAUAGAGUUAAUGAAAAGTT against Poc5, the z-score was inactive: 0.827.

As to GGUCUAUGCUGAUGCUUCUTT against Dhps, the z-score was inactive: 1.5.

Turning to GGUCAAUUAUGAAGAGUUUTT against Calm3, the z-score was active: 3.04.

As to “CGAAGUCUGAAACACAUGUTT against A730018C14Rik”, the z-score is active: 4.13.

For the sequence GGCUUUUCAAUUCCACCUUTT against Arid5b, the z-score is inactive: 0.361.

Take GGAAGAAACACCAGUAAGATT against Hbp1: the z-score is inactive: -1.32.

For the sequence GGAUCUAGAUACUUCUAGUTT against Tmub1, the z-score was inactive: -0.21.

Consider GGAAAUCAGAGAGAAGAUGTT against Nubp1, for which the z-score is inactive: -1.53.

Take GGACGGAGCUGUAAUUGCATT against Arhgef12: the z-score is active: 2.16.

Consider CGUGGAAGGCAAGAUGCAUTT against Pip4p1, for which the z-score was inactive: -0.889.

On to UUUCUUGGUGGGAUUGACUTT against Taar7b, for which the z-score was inactive: -0.392.

Turning to GAUCACACAUAUCAUCUCUTT against Dusp15, the z-score was inactive: 0.963.

In the case of GGUACUGUCGGUAUCCCACTT against Gcc1, the z-score is inactive: -1.62.

With CCACACCAGAGGUCUUUGATT against Pde4dip, the z-score is inactive: -1.74.

Regarding GGACAAAGUCUAGAAACUATT against Lrrc2, the z-score was inactive: 0.26.

Take GGACCAAAUGUAAGAAAAATT against Cstl1: the z-score was inactive: -0.781.

As to GCCUCCUGAAUGACCACAUTT against Klk1b27, the z-score is active: 2.29.

As for GGAUAUCACCUUCGAGAUATT against Ankrd7, the z-score was inactive: -0.0496.

As for GGUGUUGUCUGUGUUUUACTT against Olfr507, the z-score is inactive: 0.23.

Turning to GUUACCCUGAAGGUCAAUATT against Gstm3, the z-score is inactive: 0.535.

Regarding CCAAUGUUACGAGAAACUUTT against Smug1, the z-score was inactive: 1.02.

Regarding GGGAAUCAGCAUACUUCCUTT against Krt74, the z-score was inactive: 1.61.

In the case of “GGCAUCUAAAGGAAAGAAATT against 1810030O07Rik”, the z-score is inactive: -0.495.

For the sequence GGAAUUUGUGGAGAAACUATT against Gabbr1, the z-score was inactive: -0.232.

On to GGAGAGAAUGUUUUGGAAUTT against Stat5b, for which the z-score is inactive: 0.454.

For GGACAGUGACAAACUGAACTT against Caml, the z-score is inactive: 0.286.

For the sequence GGACUGCAUUCCUCUGAUCTT against Gm4876, the z-score is inactive: -0.838.

Turning to CCUAUAUUGAAUCUUCAACTT against Clptm1, the z-score was inactive: -0.726.

GGAUGAGAGUAAGAUCUCGTT against Vipr2: the z-score was inactive: -0.296.

For CGUAAACUUAGGAAUUUUCTT against Ccdc66, the z-score is inactive: 1.86.

Take GGUCGUGCAUGACAACUAUTT against Itk: the z-score is active: 2.62.

For the sequence GGAACAUUCUGAGAAGAAATT against Cwf19l2, the z-score is inactive: -1.45.

On to AUUCAUUGGGAAAAAUUAUTT against Olfr127, for which the z-score is active: -2.38.

GAGUUGGCUCGAAACUGCCTT against Fbxl15: the z-score was active: 3.54.

On to GGCCUCUCAAAAUCUUCCUTT against Galnt11, for which the z-score was inactive: -1.46.

Regarding CCAUUCAAUGGUAACUGAATT against Olfr229, the z-score was inactive: -0.382.

CGCUUUAUUAGAUGGGCUATT against Dlx5: the z-score is active: -2.27.

For the sequence GGAAAAUUCAGUUUAAUCCTT against Glt8d1, the z-score is inactive: 0.438.

Consider GGCUUCAAUAGUUCUCCUATT against Rpl10, for which the z-score is inactive: 0.948.

For the sequence “GGAAAAGAACCAAAGAAUGTT against 5330439B14Rik”, the z-score was inactive: 0.738.

As for GGAAAUGAAAUAGUCUCGUTT against Dpm1, the z-score was inactive: 0.25.

In the case of GCCAGACACUUAAUCCCGUTT against Unc13d, the z-score was inactive: 0.147.

On to GGGCUACACUUGCUGUACUTT against Gpc1, for which the z-score was inactive: 1.17.

For the sequence CCUUAGGCUGACAUAAUAATT against Dnajb13, the z-score was inactive: 0.521.

For the sequence GGAAAUUCUCUACUACUGATT against Unc5d, the z-score is inactive: -1.65.

Turning to “GGAACAUUUUGGAAAAGACTT against 1300017J02Rik”, the z-score is inactive: -0.0855.

As for GGAGAACUGUCAUAUGCUUTT against Cntn3, the z-score is inactive: -1.28.

As for GGGCUAGGUAGUGAUGGUCTT against Snrnp70, the z-score was inactive: -0.965.

Consider GGAUGAACCACCAUAUGUGTT against Olfr1188, for which the z-score was active: 4.69.

In the case of CCAAAUUAUUCUUGCUUUCTT against Chp1, the z-score is inactive: 1.2.

In the case of GGAAAAGAAGAAGUCAGAATT against Clmn, the z-score was inactive: 0.106.

For the sequence GGAGACGAAUCCUUUCAGUTT against Mis12, the z-score was inactive: 0.476.

Turning to CCCAGCAAAUUCAUUCUACTT against Spon2, the z-score was inactive: 0.191.

On to GCCUUGUACUGUGUAUAUATT against Gse1, for which the z-score is inactive: -0.954.

For CCUAGUAGCCGAGAAACAUTT against Olfr1137, the z-score was inactive: -0.705.

Turning to GGACUGUUACAAAUGAAGUTT against Cxcl1, the z-score is inactive: -0.454.

On to GGCACUUACACGUUUGGAATT against Cry1, for which the z-score was inactive: 0.561.

For the sequence GGUUCAACGCAAAGUUCGCTT against Aldh4a1, the z-score was inactive: 0.347.

For GGUGCACUGAAGAACUCCATT against Olfr1494, the z-score was inactive: -0.773.

For the sequence GGUAAAUCCUCUACCGCAUTT against Pvr, the z-score was inactive: 1.23.

For GGACGGGCUUCUAGUUGAATT against Vmn1r189, the z-score was inactive: -0.948.

GGUUGGUCUCCAAAGAUGGTT against Kcnj1: the z-score is inactive: -1.34.

For the sequence CUCUCCAGACUCCUAUGUATT against Olfr1118, the z-score is inactive: -1.06.

As to GGUUCCAAUUGGAUAUUUGTT against Cysltr2, the z-score was inactive: 1.68.

Regarding GGCCUUCGUCAUCUUCAAGTT against Snrpa, the z-score was inactive: 1.05.

As for GGCCCUGCAUUAUCCGAAATT against Pla2g4b, the z-score was inactive: 0.201.

As to GGUCAUUGCUAUUCCGUACTT against Olfr536, the z-score is inactive: 0.266.

As to GGGUCAACAUCAUCUAUGGTT against Olfr616, the z-score is inactive: -0.15.

Consider GGAACUGAAUGCGGAAUUCTT against Chil1, for which the z-score is inactive: 0.261.

GCGGAGAAACAGGACAACATT against Prrx1: the z-score is inactive: 1.42.

CGUACAAGACAGGUCGGUCTT against Fbxw20: the z-score was inactive: 1.84.

As to GGAGACCUUCUGAAACUAATT against Zmym2, the z-score was inactive: 0.83.

Turning to CCGAGGUUUCAUAUUUCGGTT against Leng9, the z-score was inactive: -0.588.

In the case of GGAUGGGAUGAAAAUUGAATT against Papolg, the z-score is inactive: -0.566.

With GCUAUAUAAUGCUUAUGUGTT against Tpr, the z-score was inactive: -0.501.

For GCCCAGUUUGGUUAUGUAUTT against Yipf7, the z-score is inactive: 0.115.

Consider “CGGAGACACCUACAUAUGUTT against 9130019P16Rik”, for which the z-score is inactive: 1.27.

As for GGGAAUAAUGUCUAGUUUGTT against Fam126a, the z-score was inactive: 0.215.

Consider CCCAAACAACUUGUAAAUCTT against Cox20, for which the z-score is inactive: 0.31.

In the case of GGAUCUUGGAGAGAUUCAUTT against Bloc1s5, the z-score is inactive: 0.052.

As to GGAUGAAGUUCUUUUUCAATT against Pdcd11, the z-score was active: 2.28.

As to GCCCGGUAAAGGUAUCCAUTT against Trp53bp1, the z-score is inactive: 0.384.

GGGAAGUGCAUGCUCAUCUTT against Smarcal1: the z-score is inactive: -0.187.
